Reference: publication PMC2845649
Results are given in words; binding and its absence hold for the method and conditions named. In cells and extracts the contact can be indirect.

Biological target: endogenous AKT (human (endogenous in HeLa))
Assay: co-IP; HeLa cells stably expressing PDK1-IFPC and IFPN-AKT1, lysed in NP40 buffer (Tris-HCl pH 8.0 50 mM, NaCl 150 mM, NP-40 1%); IP with anti-AKT1 or normal IgG, blots with anti-PDK1 and anti-AKT

B1: endogenous PDK1 (protein, UniProt O15530 1-556)
chain: MARTTSQLYDAVPIQSSVVLCSCPSPSMVRTQTESSTPPGIPGGSRQGPAMDGTAAEPRPGAGSLQHAQPPPQPRKKRPEDFKFGKILGEGSFSTVVLARELATSREYAIKILEKRHIIKENKVPYVTRERDVMSRLDHPFFVKLYFTFQDDEKLYFGLSYAKNGELLKYIRKIGSFDETCTRFYTAEIVSALEYLHGKGIIHRDLKPENILLNEDMHIQITDFGTAKVLSPESKQARANSFVGTAQYVSPELLTEKSACKSSDLWALGCIIYQLVAGLPPFRAGNEYLIFQKIIKLEYDFPEKFFPKARDLVEKLLVLDATKRLGCEEMEGYGPLKAHPFFESVTWENLHQQTPPKLTAYLPAMSEDDEDCYGNYDNLLSQFGCMQVSSSSSSHSLSASDTGLPQRSGSNIEQYIHDLDSNSFELDLQFSEDEKRLLLEKQAGGNPWHQFVENNLILKMGPVDKRKGLFARRRQLLLTEGPHLYYVDPVNKVLKGEIPWSQELRPEAKNFKTFFVHTPNRTYYLMDPSGNAHKWCRKIQEVWRQRYQSHPDAAVQ
binding: no binding
